Data source: PubChem BioAssay AID652272 (Drosophila RNAi Screening Center, 2013)

Screen: 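Genome-wide knock-down search for components of Hedgehog signalling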 (primary screen)
Cell system: Drosophila clone 8 (Cl8) cells
Reagent: long dsRNA against Drosophila genes
Read-out: 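Firefly light from a Hedgehog-responsive ptc promoter reporter and Renilla reference light, both read on a plate reader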
Scale: firefly Hh reporter signal: higher = more ptc reporter light; Renilla reference signal: higher = more Renilla control light
Active means: 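Called a hit if the two-replicate mean z-score lies below -2 or above +3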
Meaning of the calls: active = hit: reporter lowered or raised; inactive = not a hit
In all, the deposit lists about 21,000 reagents; below is an unselected part of those with a known target gene and a result. In the full data, 503 (2.4%) got an active call. 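Raw plate light values, not normalised; calls rest on replicate z-scores that were not deposited; hits include reporter decreases as well as increases.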 The numbers tell different reagents against one gene apart. A plus sign joins genes that one reagent is predicted to hit. The record does not give: the amount of reagent, the time to read-out.

| gene knocked down | reagent no. | firefly Hh reporter signal, replicate 1 | firefly Hh reporter signal, replicate 2 | firefly Hh reporter signal, replicate 3 | Renilla reference signal, replicate 1 | Renilla reference signal, replicate 2 | call |
| --- | --- | --- | --- | --- | --- | --- | --- |
| rau | 1 | 1.37e5 | 47969 | – | 4780 | 1943 | inactive |
| Cont (Contactin) | 1 | 96347 | 84661 | – | 4322 | 3936 | inactive |
| bchs (blue cheese) | 1 | 85413 | 41978 | – | 2119 | 3702 | inactive |
| Muc68D (Mucin 68D) | 1 | 94645 | 1.03e5 | – | 4092 | 4262 | inactive |
| osp (outspread) | 1 | 1.27e5 | 2.41e5 | – | 3659 | 12000 | inactive |
| osp (outspread) | 2 | 34554 | 47532 | – | 1680 | 2437 | inactive |
| CG14562 | 1 | 1.00e5 | 1.33e5 | – | 3408 | 3674 | inactive |
| Cc2d2a (Coiled-coil and C2 domain containing 2A) | 1 | 83461 | 44717 | – | 2285 | 3360 | inactive |
| Cc2d2a (Coiled-coil and C2 domain containing 2A) | 2 | 1.03e5 | 60937 | – | 2621 | 4165 | inactive |
| Rh2 (Rhodopsin 2) | 1 | 5.82e5 | 1.19e5 | – | 26262 | 3367 | inactive |
| glo (glorund) | 1 | 1.13e5 | 1.22e5 | – | 4275 | 5011 | inactive |
| CG12116 | 1 | 85466 | 2.50e5 | – | 2810 | 9501 | inactive |
| CG3081 | 1 | 62808 | 1.35e5 | – | 2245 | 5236 | inactive |
| CG17974 | 1 | 1.02e5 | 1.08e5 | – | 2529 | 7896 | inactive |
| Ugt301D1 (UDP-glycosyltransferase family 301 member D1) | 1 | 1.43e5 | 56518 | – | 3520 | 4673 | inactive |
| ec (echinus) | 1 | 4.53e5 | 2.18e5 | – | 20007 | 4481 | inactive |
| ec (echinus) | 2 | 3.87e5 | 2.27e5 | – | 17568 | 4845 | inactive |
| ec (echinus) | 3 | 58501 | 1.25e5 | – | 2243 | 5586 | inactive |
| cola + swif | 1 | 1.05e5 | 64518 | – | 2794 | 5387 | inactive |
| CG4653 | 1 | 1.62e5 | 8.65e5 | 1.48e5 | 3449 | 47907 | inactive |
| Fer2LCH (Ferritin 2 light chain homologue) | 1 | 59644 | 76832 | – | 1574 | 2410 | inactive |
| CG9825 | 1 | 82467 | 54363 | – | 2204 | 4235 | inactive |
| Elp4 (Elongator complex protein 4) | 1 | 53776 | 37466 | – | 1057 | 3606 | inactive |
| CG5592 | 1 | 44748 | 51753 | – | 4924 | 3036 | inactive |
| Bili (Band4.1 inhibitor LRP interactor) | 1 | 78848 | 50555 | – | 2890 | 1896 | inactive |
| Oseg4 (Outer segment 4) | 1 | 1.10e5 | 76768 | – | 4516 | 2474 | inactive |
| trp (transient receptor potential) | 1 | 88240 | 1.02e5 | – | 3413 | 3051 | inactive |
| CG12920 | 1 | 63297 | 51389 | – | 1600 | 3857 | inactive |
| Ddc (Dopa decarboxylase) | 1 | 86914 | 57673 | – | 2076 | 4992 | inactive |
| CG18596 | 1 | 1.27e5 | 88068 | – | 5688 | 3639 | inactive |
| Sans (Scaffold protein containing ankyrin repeats and SAM domain) | 1 | 81395 | 70457 | – | 3576 | 949 | inactive |
| CG18661 | 1 | 73863 | 58968 | – | 2068 | 4669 | inactive |
| CG10183 | 1 | 3.72e5 | 1.02e5 | – | 23188 | 3305 | inactive |
| Pex3 (Peroxin 3) | 1 | 1.03e5 | 59677 | – | 3617 | 2801 | inactive |
| OSCP1 | 1 | 85848 | 36034 | – | 1680 | 2676 | inactive |
| CG7458 | 1 | 1.37e5 | 5.78e5 | 1.81e5 | 4521 | 3533 | inactive |
| CG15317 | 1 | 98608 | 2.48e5 | – | 3344 | 9075 | inactive |
| Sox21a | 1 | 90822 | – | – | 3792 | 2848 | inactive |
| Eo (Ecdysone oxidase) | 1 | 1.00e5 | 2.26e5 | – | 1194 | 9530 | active |
| TkR86C (Tachykinin-like receptor at 86C) | 1 | 87930 | 1.10e5 | – | 1960 | 3184 | inactive |
| pigeon | 1 | 62080 | 35765 | – | 2896 | 1804 | inactive |
| qkr58E-2 (quaking related 58E-2) | 1 | 72306 | 48784 | – | 1080 | 4374 | inactive |
| CG13438 | 1 | 85600 | 52269 | – | 3338 | 4549 | inactive |
| CG12688 (retired record) | 1 | 68603 | 5.41e5 | 2.17e5 | 2834 | 3386 | inactive |
| CG12688 (retired record) | 2 | 96089 | 5.77e5 | 2.06e5 | 3798 | 4134 | inactive |
| Hel89B (Helicase 89B) | 1 | 1.90e5 | 8.45e5 | 1.16e5 | 7521 | 47091 | inactive |
| BORCS6 (BLOC-1 related complex subunit 6) | 1 | 82258 | 46433 | – | 2025 | 3637 | inactive |
| Nup205 (Nucleoporin 205kD) | 1 | 76403 | 77354 | – | 2072 | 2032 | inactive |
| Uros1 (Uroporphyrinogen III synthase 1) | 1 | 60304 | 62368 | – | 1799 | 1600 | inactive |
| CG5880 | 1 | 1.34e5 | 63073 | – | 3194 | 1722 | inactive |
| Shark (SH2 ankyrin repeat kinase) | 1 | 1.70e5 | 1.09e5 | – | 6473 | 4357 | inactive |
| Zip99C (Zinc/iron regulated transporter-related protein 99C) | 1 | 1.45e5 | 79696 | – | 3312 | 2132 | inactive |
| CG3604 | 1 | 1.35e5 | 39755 | – | 3520 | 4825 | inactive |
| Acp32CD (Accessory gland protein 32CD) | 1 | 99908 | 59443 | – | 2759 | 5559 | inactive |
| Pkd2 (Polycystic kidney disease 2) | 1 | 73884 | 58169 | – | 1466 | 4508 | inactive |
| CG2681 | 1 | 1.30e5 | 1.12e5 | – | 2224 | 3770 | inactive |
| Sbf (SET domain binding factor) | 1 | 1.25e5 | 79211 | – | 4578 | 3024 | inactive |
| KFase (Kynurenine formamidase) | 1 | 68736 | 65063 | – | 1524 | 5540 | inactive |
| MED24 (Mediator complex subunit 24) | 1 | 52644 | 64931 | – | 2147 | 4741 | inactive |
| NitFhit (Nitrilase and fragile histidine triad fusion protein) | 1 | 83392 | 48969 | – | 2844 | 3525 | inactive |
| Uba5 (Ubiquitin-like activating enzyme 5) | 1 | 1.01e5 | 3.67e5 | – | 4017 | 12803 | inactive |
| Cap-G (Chromosome associated protein G) | 1 | 1.33e5 | 73200 | – | 3306 | 5274 | inactive |
| Cap-G (Chromosome associated protein G) | 2 | 77188 | 46747 | – | 2088 | 3693 | inactive |
| robo3 (roundabout 3) | 1 | 96003 | 72296 | – | 2137 | 1792 | inactive |
| robo3 (roundabout 3) | 2 | 96588 | 48395 | – | 2438 | 1152 | inactive |
| robo3 (roundabout 3) | 3 | 1.30e5 | 80067 | – | 2896 | 1872 | inactive |
| sog (short gastrulation) | 1 | 41649 | 1.24e5 | – | 1376 | 7099 | inactive |
| NO66 (Nucleolar protein 66) | 1 | 93606 | 1.27e5 | – | 1778 | 3840 | inactive |
| Mettl14 (Methyltransferase like 14) | 1 | 63603 | 76940 | – | 2761 | 3001 | inactive |
| rudhira | 1 | 68042 | 45692 | – | 1952 | 1133 | inactive |
| CG17260 | 1 | 88359 | 95323 | – | 3900 | 4104 | inactive |
| Sod3 (Superoxide dismutase 3) | 1 | 1.04e5 | 77587 | – | 4717 | 3285 | inactive |
| CG15083 | 1 | 96459 | 44496 | – | 2066 | 2181 | inactive |

9 consecutive reagents already listed:
| gene knocked down | reagent no. | firefly Hh reporter signal, replicate 1 | firefly Hh reporter signal, replicate 2 | firefly Hh reporter signal, replicate 3 | Renilla reference signal, replicate 1 | Renilla reference signal, replicate 2 | call |
| --- | --- | --- | --- | --- | --- | --- | --- |
| Sox21a | 1 | 90822 | – | – | 3792 | 2848 | inactive |
| Eo (Ecdysone oxidase) | 1 | 1.00e5 | 2.26e5 | – | 1194 | 9530 | active |
| TkR86C (Tachykinin-like receptor at 86C) | 1 | 87930 | 1.10e5 | – | 1960 | 3184 | inactive |
| pigeon | 1 | 62080 | 35765 | – | 2896 | 1804 | inactive |
| qkr58E-2 (quaking related 58E-2) | 1 | 72306 | 48784 | – | 1080 | 4374 | inactive |
| CG13438 | 1 | 85600 | 52269 | – | 3338 | 4549 | inactive |
| CG12688 (retired record) | 1 | 68603 | 5.41e5 | 2.17e5 | 2834 | 3386 | inactive |
| CG12688 (retired record) | 2 | 96089 | 5.77e5 | 2.06e5 | 3798 | 4134 | inactive |
| Hel89B (Helicase 89B) | 1 | 1.90e5 | 8.45e5 | 1.16e5 | 7521 | 47091 | inactive |
